Measured data: PubChem BioAssay AID743454 (Peter MacCallum Cancer Centre, 2014)
Screen: 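Genes whose loss kills vorinostat-resistant colon cancer cells under vorinostat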 (primary screen). Cell system: human HCT116-VR colon cancer cells, selected for vorinostat resistance. Reagent: siRNA pool against human genes, 40 nM siRNA pool. Time to read-out: vorinostat for 24 h, read-out about 72 h after transfection. Treatment: vorinostat at 2.5 µM final. Measurement: 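Cell viability by CellTiter-Fluor and caspase 3/7 activity by luminescence, each scaled to mock wells per plate, duplicates averaged, then robust z-scored over all plates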. Reading the numbers: viability robust z-score: higher = more viable cells than screen typical; caspase robust z-score: higher = more caspase 3/7 activity than screen typical. Active means: 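Hits are knock-downs in viability class RV1/RV2 or caspase class CA1/CA2, excluding ones that killed cells in the no-drug cell-count arm; hits then retested with single siRNAs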.
Shown is a random part of about 18,000 reagents. 450 of them (2.5%) were called active. 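Single biological run; no consistent viability z cut-off exists, so the class columns, not z-scores, define the calls.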 Entries without a mark were called inactive.

| Target gene | viability hit class | caspase hit class | viability robust z-score | caspase robust z-score |
| --- | --- | --- | --- | --- |
| SAFB | no change | no change | -2.6 | 0.2 |
| AKR1C2 | no change | no change | -0.13 | 3.18 |
| ATAD5 | no change | no change | 0.03 | -0.19 |
| CYP4F12 | no change | no change | 0.67 | 0.28 |
| ZNF101 | no change | no change | 0.01 | -0.87 |
| HDGFL2 | no change | no change | 1.6 | 0.22 |
| COL9A2 | no change | no change | 0.8 | 0.22 |
| ATG7 | no change | no change | 0.2 | -0.84 |
| EFNB2 | no change | no change | 0.54 | -0.08 |
| PNKD | no change | no change | -1.19 | 0.02 |
| FADS2 | no change | no change | -0.28 | 0.72 |
| FIGLA | no change | no change | 0.88 | -0.6 |
| KDM4C | no change | no change | 1.24 | 1.38 |
| SMC3 | no change | no change | 0.64 | 2 |
| VWA3B | no change | no change | -0.56 | -0.96 |
| ZBTB12 | no change | no change | 0.2 | 0.4 |
| IL13RA2 | no change | no change | -1.06 | 1.82 |
| OR9G4 | no change | no change | 1.14 | -0.46 |
| DAPK1 | no change | no change | 0.03 | -0.79 |
| KHSRP | no change | no change | -1.82 | 3.86 |
| UBB | no change | no change | -4.74 | -1.04 |
| POLR2K | no change (active) | CA2 (caspase activation) | -2.54 | 6.07 |
| MROH2B | no change | no change | 0.36 | 4.51 |
| CDH10 | no change | no change | 0.95 | -0.33 |
| TRPV5 | no change | no change | -1.6 | 1.97 |

The list goes on; the last 6 above are carried over.
| Target gene | viability hit class | caspase hit class | viability robust z-score | caspase robust z-score |
| --- | --- | --- | --- | --- |
| KHSRP | no change | no change | -1.82 | 3.86 |
| UBB | no change | no change | -4.74 | -1.04 |
| POLR2K | no change (active) | CA2 (caspase activation) | -2.54 | 6.07 |
| MROH2B | no change | no change | 0.36 | 4.51 |
| CDH10 | no change | no change | 0.95 | -0.33 |
| TRPV5 | no change | no change | -1.6 | 1.97 |
| PRM2 | no change | no change | -0.06 | 4.1 |
| LAX1 | no change | no change | -0.17 | 2.51 |
| SLC35A1 | no change | no change | -0.3 | 0.1 |
| FRS3 | no change | no change | 0.32 | 1.21 |
| STAT2 | no change | no change | -0.8 | -0.64 |
| SLTM | no change | no change | -0.2 | -0.53 |
| PTPRR | no change | no change | 0.74 | -0.04 |
| ZNF276 | no change | no change | 0.11 | 2.4 |
| POMGNT2 | no change | no change | -0.35 | -0.45 |
| OTP | no change | no change | 0.14 | -0.38 |
| SMARCB1 | no change | no change | -1.32 | -0.28 |
| TUBB4A | no change | no change | 0.28 | -1.25 |
| LHFPL7 | no change | no change | -0.14 | -1.31 |
| TECTB | RV2 (reduced viability) (active) | no change | -4.08 | 0.72 |
| TBC1D10B | no change | no change | -0.12 | 0.26 |
| ZNF700 | no change | no change | 0.2 | 0.9 |
| ZNF776 | no change | no change | -0.95 | 0.94 |
| MPHOSPH9 | no change | no change | -0.1 | -1 |
| KLRC1 | no change | no change | 0.3 | -1.15 |
| MISO1 | no change | no change | 1.38 | 0.23 |
| CITED2 | no change | no change | 0.55 | 0.88 |
| KAT2B | no change | no change | -0.81 | 0.7 |
| KCNJ3 | no change | no change | -0.94 | -0.46 |
| HSD3B2 | no change | no change | 2.1 | -0.04 |
| CPO | no change | no change | -1.11 | 3.87 |
| TSPAN16 | no change | no change | -0.24 | -0.24 |
| AFF1 | no change | no change | 0.32 | 1.43 |
| NEUROG3 | no change | no change | 0.63 | -0.36 |
| RNF145 | no change | no change | -0.42 | 0.95 |
| CSF2RA | no change | no change | -0.14 | -0.78 |
| NUP85 | no change (active) | CA1 (caspase activation) | -0.5 | 5.49 |
| RSAD1 | no change | no change | 0.01 | -1.15 |
